PubChem BioAssay AID1625 (Sanford-Burnham Center for Chemical Genomics, 2009)
Hit rate of the full screen: of about 190,000 compounds, about 570 (0.3%) were called active. This list was built around the results that the source calls inconclusive (neither active nor inactive); the mix of calls is not that of the screen.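 The calls were made as follows: active = z-score above 3 at 5 µM with at least 500 cells counted in the well; inconclusive = wells under 500 cells, flagged as cytotoxic or low count; inactive = the rest.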

test: up-regulation of insulin promoter-GFP reporter – imaging, high-content screening, mouse beta cells (AID 1625); settings: MIN6 insulin promoter-GFP reporter, at 5 µM, hits give high values

Row | SMILES | z-score
1 | COc1c(Cl)cnn(-c2ccc(C)cc2)c1=O | inactive: 0.45
2 | Cc1ccc(-n2c(Cl)c(Cl)nc(Cl)c2=O)cc1 | inconclusive: -1.64
3 | CSc1snnc1-c1ccccc1 | inconclusive: -1.18
4 | CCN(CC)c1ccc(Nc2nc(N3CCOCC3)c3ccccc3n2)cc1 | inconclusive: -8.9
5 | COc1ccccc1NC(=S)NC1CCCCC1 | inactive: -0.16
6 | CCCCCCCCC[n+]1cccc2c3ccccc3ccc21 | inconclusive: -4.21
7 | Cc1ccc(Cn2c(=N)n(CC(O)COc3ccccc3)c3ccccc32)cc1 (centres undefined) | inconclusive: -6.93
8 | CCN(CCNCC(O)COCc1ccc(Cl)cc1)c1cccc(C)c1 (centres undefined) | inactive: -0.88
9 | Cn1c[n+](C)cc1-c1ccc(/C(N)=N/O)cc1 | inconclusive: -2.51
10 | Cc1ccc(-c2c[n+](Cc3ccc(Cl)c(Cl)c3)c3n2CCC3)cc1 | inconclusive: -2.33
11 | O=C(NCCCN1CCCCCC1)C1CC(=O)N(C2CCCC2)C1 (centres undefined) | active: 4.02
12 | O=C(COC(=O)CCc1ccc(S(=O)(=O)N2CCOCC2)cc1)NC1CCCC1 | inactive: -0.06
13 | FC(F)(F)c1nc(-c2cccs2)ncc1-c1nnnn1-c1ccc(Cl)cc1 | inconclusive: -4.11
14 | CC(=O)c1cccc(NC(=O)c2cc(-c3ccc(C)cc3)on2)c1 | inactive: 0.41
15 | COCCNCCOc1ccccc1-c1ccccc1 | inactive: -0.24
16 | CCN(CC)CCN1C(=O)c2oc3ccccc3c(=O)c2C1c1ccccc1 (centres undefined) | active: 3.66
17 | CC(C)(C)SCCNC(=O)CN(c1ccccc1)S(=O)(=O)c1ccc(F)cc1 | inactive: 0.11
18 | Cc1cc(Cl)c(S(=O)(=O)N2CCN(c3ccc(F)cc3)CC2)cc1OCC(=O)NC1CCCCC1 | inconclusive: -7.31
19 | Cc1nc2ccc(NC(=O)c3cc(S(=O)(=O)N(C)c4ccccc4)ccc3Cl)cc2s1 | inconclusive: -2.97
20 | NC(N)=NS(=O)(=O)c1ccc(NC(=S)NC(=O)c2ccc3c(c2)OCO3)cc1 | inactive: 0.9
21 | Cc1ccc(S(=O)(=O)NCc2ccncc2)cc1 | inconclusive: -8.02
22 | CSC1=NC(C(Cl)(Cl)Cl)N=C(c2ccc(C)cc2)N1 (centres undefined) | inactive: 0.72
23 | c1ccc2c(c1)OCC(CNc1ncnc3sccc13)O2 (centres undefined) | inconclusive: -2.18
24 | COc1ccc(CCn2c(NCc3ccco3)nc3c2c(=O)[nH]c(=O)n3C)cc1 | inconclusive: -0.68
25 | COc1ccc(C(=O)N(CN2CCCC2=O)c2ccc(C)cc2)cc1 | active: 3.42

In a second layout: results already given.
Row	SMILES	z-score
11	O=C(NCCCN1CCCCCC1)C1CC(=O)N(C2CCCC2)C1 (centres undefined)	active: 4.02
12	O=C(COC(=O)CCc1ccc(S(=O)(=O)N2CCOCC2)cc1)NC1CCCC1	inactive: -0.06
13	FC(F)(F)c1nc(-c2cccs2)ncc1-c1nnnn1-c1ccc(Cl)cc1	inconclusive: -4.11
14	CC(=O)c1cccc(NC(=O)c2cc(-c3ccc(C)cc3)on2)c1	inactive: 0.41
15	COCCNCCOc1ccccc1-c1ccccc1	inactive: -0.24
16	CCN(CC)CCN1C(=O)c2oc3ccccc3c(=O)c2C1c1ccccc1 (centres undefined)	active: 3.66
17	CC(C)(C)SCCNC(=O)CN(c1ccccc1)S(=O)(=O)c1ccc(F)cc1	inactive: 0.11
18	Cc1cc(Cl)c(S(=O)(=O)N2CCN(c3ccc(F)cc3)CC2)cc1OCC(=O)NC1CCCCC1	inconclusive: -7.31
19	Cc1nc2ccc(NC(=O)c3cc(S(=O)(=O)N(C)c4ccccc4)ccc3Cl)cc2s1	inconclusive: -2.97
20	NC(N)=NS(=O)(=O)c1ccc(NC(=S)NC(=O)c2ccc3c(c2)OCO3)cc1	inactive: 0.9
21	Cc1ccc(S(=O)(=O)NCc2ccncc2)cc1	inconclusive: -8.02
22	CSC1=NC(C(Cl)(Cl)Cl)N=C(c2ccc(C)cc2)N1 (centres undefined)	inactive: 0.72
23	c1ccc2c(c1)OCC(CNc1ncnc3sccc13)O2 (centres undefined)	inconclusive: -2.18
24	COc1ccc(CCn2c(NCc3ccco3)nc3c2c(=O)[nH]c(=O)n3C)cc1	inconclusive: -0.68

Following part:

Row | SMILES | z-score
26 | COc1cccc(C(=O)N2CCOCC2)c1 | inactive: -1.22
27 | CCn1c(Cn2nnc(-c3ccccc3)n2)nnc1SCC(=O)Nc1ccc(C(C)=O)cc1 | active: 4.86
28 | Cc1nc(Nc2ccc(F)cc2)[nH]c(=O)c1CCC(C)C | inconclusive: -2.81
29 | CCOc1ccc(N(CC(=O)Nc2ccc(C)c(C)c2)S(=O)(=O)c2c(C)noc2C)cc1 | inconclusive: -3.06
30 | COc1ccc(C)cc1S(=O)(=O)N1CCN(c2cccc(C(F)(F)F)c2)CC1 | inactive: -1.27
31 | Cc1nn(-c2ccccc2)c(C)c1NC(=O)CCl | active: 3.88
32 | C[C@@]1([C@@H](NC(=O)c2cccs2)c2ccc(-c3ccccc3)cc2)C[C@H]1C1CCCCC1 | inconclusive: -0.16
33 | CCCn1nnc(NC(=O)COc2cc(C)ccc2C(C)C)n1 | inactive: 0.26
34 | COc1ccc(NC(=O)CC(CC(=O)O)c2cc(OC)c(OC)c(OC)c2)cc1 (centres undefined) | inactive: -0.18
35 | Cc1ccc(NC(=O)CCl)c(C)c1 | active: 3.51
36 | Cc1c(OCc2ccccc2)cccc1OCc1ccccc1 | inconclusive: -5.2
37 | O=C1CN(C(=O)COc2ncnc3ccccc23)c2ccccc2N1 | active: 4.05
38 | Nc1nonc1C(=O)NCCNCc1cc(Br)ccc1OCc1ccccc1F | inconclusive: -2.55
39 | NC(=O)c1cc2c3ccccc3ccn2c1-c1ccccc1 | inconclusive: -2.01
40 | c1ccc(-c2cn(-c3ccccc3)c3[n+]2CCCS3)cc1 | inconclusive: -3.7
41 | CC(=O)n1cc(N(C(=O)CCl)c2ccc([N+](=O)[O-])cc2)c2ccccc21 | inconclusive: -2
42 | Cc1c(N=C2SCC(=O)N2/N=C/c2ccccc2)c(=O)n(-c2ccccc2)n1C | inactive: 0.71
43 | CCC(C(=O)OCC(=O)Nc1cccc(S(=O)(=O)NC2=NCCCCC2)c1)c1ccccc1 (centres undefined) | active: 3.98
44 | O=C(CSc1nnnn1-c1ccc(Cl)c(C(=O)O)c1)NC(c1ccccc1)c1ccccc1 | inactive: -0.13
45 | CC1=CC(=O)c2c(O)ccc(O)c2C1=O | inconclusive: -3.08
46 | CCCCCCCCCC[n+]1cccc2c3ccccc3ccc21 | inconclusive: -3.49
47 | CCCCCCCC[n+]1cccc2c3ccccc3ccc21 | inconclusive: -3.62
48 | O=C(CSc1nnc(C2CC2)n1Cc1ccco1)NCC(F)(F)F | inactive: 0.17
49 | COc1cc(N2CCCC2)c(OC)cc1/C=c1/sc2nc3ccccc3n2c1=O | active: 16.8
